Laboratory results taken from the supplement of paper PMC6078165.
The reference is the same well before dosing, and untreated signal decays as well.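 Fibroblast labels denote human fibroblasts, mainly primary ones from uterus (C12385, HUF), lung (H6013), bone (Hs27A), adrenal (HADF) and skin (WS1), plus mammary HMF and breast cancer-associated Hs343T. Cancer cells are basal-like or mesenchymal-like triple-negative breast cancer lines. A hit is a response shift exceeding 3x replicate standard deviation. The tissue of the other fibroblasts is not given here.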

Tested on: MDAMB436
Assay: relative JC-1 red fluorescence (viability) vs pre-drug, coculture with fibroblast (fraction); higher = more viable cancer cells
Protocol: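 JC-1 labelled TNBC cells cocultured 1:1 (1,500 cells each) with CellTrace Violet stained primary or stromal fibroblasts in 384-well plates in FluoroBrite medium, treated with one of 42 anticancer drugs at 0.1, 1, 10 or 100 uM. JC-1 red fluorescence (mitochondrial integrity in cancer cells only) was read by plate reader every 8 h for 72 h. Values are normalised to each well's pre-drug value. The stock of one drug was tenfold lower, so its dose labels may be too high.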

O=NN(CCCl)C(=O)NC1CCCCC1 [Lomustine]
relative JC-1 red fluorescence
Conditions	8 h	16 h	24 h	32 h	40 h	48 h	56 h	64 h	72 h
0.1 µM, coculture fibroblast: C12385	0.7331	0.694	0.665	0.588	0.548	0.537	0.531	0.527	0.527
0.1 µM, coculture fibroblast: H6013	0.815	0.795	0.787	0.781	0.773	0.804	0.771	0.753	0.706
0.1 µM, coculture fibroblast: H6019	0.7214	0.684	0.659	0.593	0.558	0.541	0.507	0.48	0.449
0.1 µM, coculture fibroblast: H6076	0.721	0.679	0.689	0.657	0.664	0.634	0.661	0.649	0.646
0.1 µM, coculture fibroblast: H6231	0.6899	0.649	0.687	0.596	0.6	0.576	0.569	0.552	0.547
0.1 µM, coculture fibroblast: HADF	0.7815	0.7594	0.737	0.722	0.736	0.794	0.74	0.752	0.724
0.1 µM, coculture fibroblast: HCFa	0.773	0.744	0.718	0.696	0.687	0.707	0.65	0.642	0.592
0.1 µM, coculture fibroblast: HCPF	0.761	0.724	0.735	0.662	0.651	0.619	0.606	0.589	0.581
0.1 µM, coculture fibroblast: HHSteC	0.834	0.83	0.822	0.798	0.7908	0.785	0.722	0.697	0.641
0.1 µM, coculture fibroblast: HMF	0.765	0.7047	0.68	0.629	0.612	0.58	0.59	0.566	0.564
0.1 µM, coculture fibroblast: HPFa	0.845	0.801	0.78	0.739	0.736	0.739	0.665	0.637	0.562
0.1 µM, coculture fibroblast: HUF	0.809	0.723	0.694	0.614	0.572	0.5467	0.525	0.5131	0.5069
0.1 µM, coculture fibroblast: Hs5	0.771	0.727	0.717	0.663	0.656	0.621	0.644	0.616	0.606
0.1 µM, coculture fibroblast: Hs27A	0.7897	0.749	0.743	0.736	0.719	0.805	0.698	0.685	0.607
0.1 µM, coculture fibroblast: Hs343T	0.772	0.71	0.693	0.648	0.635	0.604	0.599	0.592	0.582
0.1 µM, coculture fibroblast: WS1	0.7511	0.692	0.659	0.568	0.536	0.513	0.4941	0.4724	0.4707
1 µM, coculture fibroblast: C12385	0.8188	0.687	0.6622	0.5755	0.5216	0.492	0.465	0.444	0.438
1 µM, coculture fibroblast: H6013	0.838	0.736	0.71	0.695	0.675	0.679	0.641	0.626	0.576
1 µM, coculture fibroblast: H6019	0.7337	0.628	0.609	0.5389	0.4921	0.4731	0.4419	0.4169	0.395
1 µM, coculture fibroblast: H6076	0.826	0.747	0.7	0.65	0.6	0.568	0.5471	0.5291	0.515
1 µM, coculture fibroblast: H6231	0.754	0.653	0.623	0.556	0.522	0.487	0.4749	0.4361	0.42025
1 µM, coculture fibroblast: HADF	0.8123	0.6841	0.6291	0.582	0.55052	0.548	0.498	0.485	0.451
1 µM, coculture fibroblast: HCFa	0.787	0.696	0.657	0.616	0.588	0.5918	0.5321	0.5183	0.466
1 µM, coculture fibroblast: HCPF	0.805	0.719	0.69267	0.629	0.602	0.563	0.542	0.52	0.501
1 µM, coculture fibroblast: HHSteC	0.8453	0.7906	0.758	0.727	0.703	0.715	0.653	0.622	0.571
1 µM, coculture fibroblast: HMF	0.808	0.704	0.662	0.616	0.598	0.561	0.546	0.529	0.507
1 µM, coculture fibroblast: HPFa	0.862	0.788	0.743	0.7034	0.688	0.696	0.607	0.581	0.5004
1 µM, coculture fibroblast: HUF	0.851	0.7654	0.7595	0.691	0.642	0.615	0.589	0.573	0.573
1 µM, coculture fibroblast: Hs5	0.817	0.725	0.697	0.643	0.618	0.577	0.569	0.536	0.516
1 µM, coculture fibroblast: Hs27A	0.813	0.742	0.696	0.657	0.633	0.682	0.592	0.576	0.507
1 µM, coculture fibroblast: Hs343T	0.787	0.676	0.629	0.585	0.56	0.516	0.501	0.49	0.48
1 µM, coculture fibroblast: WS1	0.7918	0.675	0.651	0.582	0.537	0.511	0.49	0.456	0.447
10 µM, coculture fibroblast: C12385	0.762	0.733	0.709	0.636	0.599	0.58	0.561	0.546	0.542
10 µM, coculture fibroblast: H6013	0.81	0.7884	0.772	0.785	0.788	0.817	0.791	0.782	0.739
10 µM, coculture fibroblast: H6019	0.75523	0.7093	0.676	0.598	0.559	0.541	0.508	0.478	0.451
10 µM, coculture fibroblast: H6076	0.706	0.649	0.647	0.62	0.626	0.623	0.649	0.643	0.641
10 µM, coculture fibroblast: H6231	0.7193	0.611	0.622	0.536	0.521	0.499	0.494	0.482	0.478
10 µM, coculture fibroblast: HADF	0.7506	0.7168	0.686	0.661	0.653	0.681	0.625	0.626	0.589
10 µM, coculture fibroblast: HCFa	0.811	0.797	0.782	0.754	0.752	0.782	0.73	0.739	0.696
10 µM, coculture fibroblast: HCPF	0.684	0.647	0.663	0.594	0.594	0.567	0.561	0.549	0.551
10 µM, coculture fibroblast: HHSteC	0.779	0.731	0.70207	0.6718	0.6645	0.667	0.623	0.6026	0.5664
10 µM, coculture fibroblast: HMF	0.739	0.691	0.677	0.628	0.629	0.6	0.619	0.597	0.607
10 µM, coculture fibroblast: HPFa	0.8422	0.805	0.781	0.736	0.73	0.738	0.665	0.646	0.57
10 µM, coculture fibroblast: HUF	0.8022	0.73369	0.707	0.632	0.583	0.558	0.54	0.5282	0.529
10 µM, coculture fibroblast: Hs5	0.688	0.648	0.64	0.594	0.59	0.5636	0.57171	0.547	0.542
10 µM, coculture fibroblast: Hs27A	0.792	0.764	0.745	0.723	0.708	0.791	0.689	0.675	0.597
10 µM, coculture fibroblast: Hs343T	0.689	0.626	0.589	0.538	0.532	0.509	0.516	0.513	0.524
10 µM, coculture fibroblast: WS1	0.759	0.714	0.685	0.601	0.572	0.545	0.521	0.489	0.48
100 µM, coculture fibroblast: C12385	0.749	0.724	0.7223	0.639	0.601	0.576	0.558	0.54	0.531
100 µM, coculture fibroblast: H6013	0.841	0.851	0.868	0.883	0.907	0.782	0.792	0.8196	0.809
100 µM, coculture fibroblast: H6019	0.7988	0.7692	0.756	0.691	0.663	0.654	0.627	0.608	0.591
100 µM, coculture fibroblast: H6076	0.73137	0.678	0.678	0.633	0.625	0.608	0.637	0.637	0.644
100 µM, coculture fibroblast: H6231	0.825	0.734	0.778	0.691	0.665	0.622	0.627	0.59	0.587
100 µM, coculture fibroblast: HADF	0.799	0.784	0.758	0.741	0.742	0.784	0.73	0.733	0.689
100 µM, coculture fibroblast: HCFa	0.794	0.784	0.778	0.763	0.764	0.795	0.739	0.749	0.715
100 µM, coculture fibroblast: HCPF	0.774	0.771	0.807	0.76	0.747	0.72	0.71	0.702	0.69
100 µM, coculture fibroblast: HHSteC	0.81	0.831	0.824	0.798	0.815	0.835	0.778	0.769	0.724
100 µM, coculture fibroblast: HMF	0.784	0.743	0.723	0.665	0.64	0.603	0.608	0.594	0.6
100 µM, coculture fibroblast: HPFa	0.854	0.813	0.791	0.748	0.748	0.759	0.693	0.679	0.618
100 µM, coculture fibroblast: HUF	0.861	0.783	0.77	0.687	0.645	0.614	0.595	0.583	0.582
100 µM, coculture fibroblast: Hs5	0.789	0.734	0.708	0.644	0.635	0.584	0.593	0.578	0.575
100 µM, coculture fibroblast: Hs27A	0.809	0.778	0.761	0.733	0.718	0.79	0.698	0.702	0.64
100 µM, coculture fibroblast: Hs343T	0.845	0.78	0.734	0.672	0.648	0.601	0.599	0.587	0.594
100 µM, coculture fibroblast: WS1	0.77	0.7403	0.742	0.672	0.645	0.622	0.602	0.574	0.567
